{
  "source": "paper PMC5629014",
  "about": "“Assessment of sesquiterpene lactones isolated from Mikania plants species for their potential efficacy against Trypanosoma cruzi and Leishmania sp” (PLoS Neglected Tropical Diseases, 2017)",
  "key": {"[1]": {"test_system": "T. cruzi amastigotes", "test": "Inhibition of intracellular amastigotes, β-galactosidase transfected parasites in Raw 264.7 cells (CPRG)", "type": "cell-based, Trypanosoma cruzi", "protocol": "(§1) Trypanosoma cruzi epimastigotes (RA strain) were grown in a biphasic medium. Cultures were routinely maintained by weekly passages at 28°C. T. cruzi bloodstream trypomastigotes (RA strain) and the recombinant Tulahuen strain expressing β-galactosidase (Tul-β-Gal) were obtained from infected CF1 mice by cardiac puncture at the peak of parasitemia on day 15 post-infection. Trypomastigotes were routinely maintained by infecting 21-day-old CF1 mice.\nThe effect of each compound on intracellular forms of T. cruzi was assayed using β-galactosidase transfected parasites. Briefly, 96-well plates were seeded with Raw 264.7 cells at 5x10^3 per well in […] of culture medium and incubated for 24 h at 37 °C in a 5% CO2 atmosphere. Cells were washed and infected with transfected blood trypomastigotes expressing β-galactosidase at a parasite/cell ratio of 10:1. After 12 h of co- culture, plates were washed twice with PBS to remove unbound parasites and each pure compound was added at different concentrations (0.001–50 μg/mL) in 150 μL of fresh complete RPMI medium without phenol red (Gibco, Rockville, MD). Controls included infected untreated cells (100% infection control) and uninfected cells (0% infection control). The assay was developed 5 days later by the addition of chlorophenol red-β-D-galactopyranoside (CPRG) (100 mM) and 1% Nonidet P40. Plates were then incubated for 4–6 h at 37 °C and the absorbance was measured at 595 nm in a microplate reader (Bio-Rad Laboratories, Hercules, CA). The percentage inhibition was calculated as 100–{[(absorbance of treated infected cells)/(absorbance of untreated infected cells) x 100} and the IC50 value was estimated. Benznidazole was used as positive control."}, "[2]": {"test_system": "Leishmania braziliensis promastigotes (MHOM/BR/75/M2903 strain)", "test": "Growth inhibition of Leishmania braziliensis promastigotes, MTT method", "type": "cell-based", "conditions": "SI = CC50/IC50, CC50 on THP1", "protocol": "Leishmania braziliensis promastigotes (MHOM/BR/75/M2903 strain) were grown in liver infusion tryptose medium LIT, which was prepared as follows: 5 g/L liver infusion (Sigma 2023-072K1066), 5 g/L tryptose (Britania), 2 g/L glucose (Sigma), 68 mM NaCl, 5.4 mM KCl, 22 mM HPO4Na2, supplemented with 20 mg/L hemin (Sigma) and 10% (vol/vol) fetal calf serum (FCS) (Internegocios). Culture maintenance was performed by weekly passages at 26°C.\nThe growth inhibition of Leishmania braziliensis promastigotes was evaluated by the MTT method. Parasites (5x10^6) were settled at a final volume of 150 μL in a flat-bottom 96-well microplate and cultured at 37°C in a 5% CO2 atmosphere in the absence or presence of increasing concentrations of the pure compounds. After 72 h, 3-(4,5- dimethylthiazol-2-yl)-2,5-diphenyltetrazolium bromide (MTT) was added at a final concentration of 1.5 mg/mL. Plates were incubated for 2 h at 37°C. The purple formazan crystals formed were completely dissolved by adding 150 μL of ethanol and the absorbance was read at 595 nm in a microplate reader. The inhibition percentage was calculated as {100 − [(DO595nm of treated parasites/ DO595nm of untreated parasites) × 100]}. Compounds were tested at 0–50 μg/mL. Amphotericin B was used as positive control."}, "[3]": {"test_system": "T. cruzi bloodstream trypomastigotes", "test": "Trypanocidal effect on bloodstream trypomastigotes, live parasite count in Neubauer chamber", "type": "cell-based, Trypanosoma cruzi", "conditions": "SI = CC50/IC50, CC50 on THP1", "protocol": "as §1\nThe trypanocidal effect of the purified compounds was also tested on bloodstream trypomastigotes. Briefly, mouse blood containing trypomastigotes was diluted in complete RPMI -1640 Medium (Sigma-Aldrich R6504- Batch 029K83102) with 10% (vol/vol) fetal calf serum (FCS) (Internegocios) to adjust the parasite concentration to 3 × 10^5/mL. Parasites were seeded in duplicate in a 96-well microplate in the presence of each compound (0–50 μg/mL) or controls and incubated at 4 °C for 24 h. The number of remaining living parasites in each sample was determined in 5 μL of cell suspension diluted 1/5 in lysis buffer (0.75% NH4Cl, 0.2% Tris, pH 7.2) and counted in a Neubauer chamber. Benznidazole was used as positive control."}},
  "data": [
    {"smiles": "C=C1C(=O)OC2CC3(C)OC3CCC3=CC(OC3=O)C12", "note": "(centres unmarked) [deoxymikanolide]", "values": [
      {"measurement": "SI T. cruzi amastigotes", "setting": "[1]; SI = CC50/IC50, CC50 on THP1", "result": 12.5},
      {"measurement": "SI L. braziliensis promastigotes", "setting": "[2]", "result": 6.9},
      {"measurement": "SI T. cruzi trypomastigotes", "setting": "[3]", "result": 54}
    ]},
    {"smiles": "C[C@H]1C(=O)O[C@H]2C[C@]3(C)O[C@H]3[C@@H]3O[C@@H]3C3=C[C@@H](OC3=O)[C@@H]21", "note": "[dihydromikanolide]", "values": [
      {"measurement": "SI T. cruzi amastigotes", "setting": "[1]; SI = CC50/IC50, CC50 on THP1", "result": 1.52},
      {"measurement": "SI L. braziliensis promastigotes", "setting": "[2]", "result": 0.2},
      {"measurement": "SI T. cruzi trypomastigotes", "setting": "[3]", "result": 50},
      {"measurement": "SI T. cruzi trypomastigotes", "setting": "[3]; listed as Dihydromikanolide", "result": 49.9}
    ]},
    {"smiles": "C=C1C(=O)OC2CC3(C)OC3C3OC3C3=CC(OC3=O)C12", "note": "(centres unmarked) [mikanolide]", "values": [
      {"measurement": "SI T. cruzi amastigotes", "setting": "[1]; ratio CC50 / IC50", "result": 4.96},
      {"measurement": "SI L. braziliensis promastigotes", "setting": "[2]", "result": 4.4},
      {"measurement": "SI T. cruzi trypomastigotes", "setting": "[3]", "result": 10.66},
      {"measurement": "SI T. cruzi trypomastigotes", "setting": "[3]; listed as Mikanolide", "result": 10.7}
    ]},
    {"smiles": "C=C1C(=O)OC2CC3(C)OC3CC(OC(C)=O)C3=CC(OC3=O)C12", "note": "(centres unmarked) [scandenolide]", "values": [
      {"measurement": "SI T. cruzi amastigotes", "setting": "[1]; SI = CC50/IC50, CC50 on THP1", "result": 14.2},
      {"measurement": "SI L. braziliensis promastigotes", "setting": "[2]", "result": 3.4},
      {"measurement": "SI T. cruzi trypomastigotes", "setting": "[3]", "result": 12.6}
    ]}
  ]
}
